Values from PubChem BioAssay AID1224827 (NIAID, 2016).
The deposit covers about 3,800 reagents; this is a part drawn at random. In the full data, about 2,200 (57%) got an active call. 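Active means a strong reporter change in either direction; calls are per siRNA, not per gene; qiagen siRNAs gave weaker effects.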 The numbers tell different reagents against one gene apart. Further read-outs or replicates are left out here. No sequences are given here.

Aim: 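Confirm genes whose knock-down changes LPS-driven TNF promoter activity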 (follow-up of hits)
System: RAW264.7 G9 mouse macrophage reporter clone
Reagents: single siRNA against mouse genes, 100 nM siRNA
Timing: siRNA for 2 days, then LPS about 16 h
Treatment: bacterial lipopolysaccharide (LPS), 10 ng/ml, cells fixed after overnight (about 16 h) stimulation
Read-out: 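TNF promoter reporter red fluorescence in nuclei, background subtracted, normalised per plate and to non-targeting control siRNA, as z-scores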
Direction: TNF reporter z-score, mean: higher = stronger Tnf promoter reporter signal
Call rule: 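Active siRNA: replicate-mean z-score of 2 or more, or -2 or less; no calls for control wells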

| gene knocked down | reagent | TNF reporter z-score, mean | outcome |
| --- | --- | --- | --- |
| Or5ar1 (olfactory receptor family 5 subfamily AR member 1) | 1 | -2.69 | active |
| Or5ar1 (olfactory receptor family 5 subfamily AR member 1) | 2 | -4.34 | active |
| Or5ar1 (olfactory receptor family 5 subfamily AR member 1) | 3 | -4.9 | active |
| Or5ar1 (olfactory receptor family 5 subfamily AR member 1) | 4 | 6.34 | active |
| Or5ar1 (olfactory receptor family 5 subfamily AR member 1) | 5 | -1.64 | inactive |
| Or5ar1 (olfactory receptor family 5 subfamily AR member 1) | 6 | -2.01 | active |
| Dpm2 (dolichyl-phosphate mannosyltransferase subunit 2, regulatory) | 1 | -0.571 | inactive |
| Dpm2 (dolichyl-phosphate mannosyltransferase subunit 2, regulatory) | 2 | -2.58 | active |
| Dpm2 (dolichyl-phosphate mannosyltransferase subunit 2, regulatory) | 3 | -4.25 | active |
| Dpm2 (dolichyl-phosphate mannosyltransferase subunit 2, regulatory) | 4 | 3.73 | active |
| Dpm2 (dolichyl-phosphate mannosyltransferase subunit 2, regulatory) | 5 | 1.74 | inactive |
| Dpm2 (dolichyl-phosphate mannosyltransferase subunit 2, regulatory) | 6 | -3.36 | active |
| Akr1b7 (aldo-keto reductase family 1, member B7) | 1 | 1.54 | inactive |
| Akr1b7 (aldo-keto reductase family 1, member B7) | 2 | -1.61 | inactive |
| Akr1b7 (aldo-keto reductase family 1, member B7) | 3 | -3.15 | active |
| Akr1b7 (aldo-keto reductase family 1, member B7) | 4 | -0.554 | inactive |
| Akr1b7 (aldo-keto reductase family 1, member B7) | 5 | -1.07 | inactive |
| Akr1b7 (aldo-keto reductase family 1, member B7) | 6 | -2.25 | active |
| Adcy9 (adenylate cyclase 9) | 1 | 2.24 | active |
| Adcy9 (adenylate cyclase 9) | 2 | 0.756 | inactive |
| Adcy9 (adenylate cyclase 9) | 3 | -1.74 | inactive |
| Adcy9 (adenylate cyclase 9) | 4 | -0.201 | inactive |
| Adcy9 (adenylate cyclase 9) | 5 | -1.07 | inactive |
| Adcy9 (adenylate cyclase 9) | 6 | -1 | inactive |
| Hoxa2 (homeobox A2) | 1 | -3.06 | active |
| Hoxa2 (homeobox A2) | 2 | -4.26 | active |
| Hoxa2 (homeobox A2) | 3 | -5.47 | active |
| Hoxa2 (homeobox A2) | 4 | 3.23 | active |
| Hoxa2 (homeobox A2) | 5 | -0.865 | inactive |
| Hoxa2 (homeobox A2) | 6 | -4.34 | active |
| Lrrc14 (leucine rich repeat containing 14) | 1 | 3.66 | active |
| Lrrc14 (leucine rich repeat containing 14) | 2 | -4.94 | active |
| Lrrc14 (leucine rich repeat containing 14) | 3 | -5.27 | active |
| Lrrc14 (leucine rich repeat containing 14) | 4 | 1.78 | inactive |
| Lrrc14 (leucine rich repeat containing 14) | 5 | -0.61 | inactive |
| Lrrc14 (leucine rich repeat containing 14) | 6 | -0.727 | inactive |
| Pla2g4a (phospholipase A2, group IVA (cytosolic, calcium-dependent)) | 1 | 3.85 | active |
| Pla2g4a (phospholipase A2, group IVA (cytosolic, calcium-dependent)) | 2 | -4.6 | active |
| Pla2g4a (phospholipase A2, group IVA (cytosolic, calcium-dependent)) | 3 | -4.62 | active |
| Pla2g4a (phospholipase A2, group IVA (cytosolic, calcium-dependent)) | 4 | 3.89 | active |
| Pla2g4a (phospholipase A2, group IVA (cytosolic, calcium-dependent)) | 5 | 2.53 | active |
| Pla2g4a (phospholipase A2, group IVA (cytosolic, calcium-dependent)) | 6 | 2.22 | active |
| Il1r1 (interleukin 1 receptor, type I) | 1 | -3.15 | active |
| Il1r1 (interleukin 1 receptor, type I) | 2 | -4.31 | active |
| Il1r1 (interleukin 1 receptor, type I) | 3 | -4.33 | active |
| Il1r1 (interleukin 1 receptor, type I) | 4 | 1.63 | inactive |
| Il1r1 (interleukin 1 receptor, type I) | 5 | -1.61 | inactive |
| Il1r1 (interleukin 1 receptor, type I) | 6 | -3.11 | active |
| E130006D01Rik (RIKEN cDNA E130006D01 gene) | 1 | -1.18 | inactive |
| E130006D01Rik (RIKEN cDNA E130006D01 gene) | 2 | -1.42 | inactive |
| E130006D01Rik (RIKEN cDNA E130006D01 gene) | 3 | -3.55 | active |
| E130006D01Rik (RIKEN cDNA E130006D01 gene) | 4 | 0.102 | inactive |
| E130006D01Rik (RIKEN cDNA E130006D01 gene) | 5 | -1.34 | inactive |
| E130006D01Rik (RIKEN cDNA E130006D01 gene) | 6 | -2.29 | active |
| Tox (thymocyte selection-associated high mobility group box) | 1 | -3.4 | active |
| Tox (thymocyte selection-associated high mobility group box) | 2 | -4.01 | active |
| Tox (thymocyte selection-associated high mobility group box) | 3 | -4.32 | active |
| Tox (thymocyte selection-associated high mobility group box) | 4 | 4.45 | active |
| Tox (thymocyte selection-associated high mobility group box) | 5 | 1.82 | inactive |
| Tox (thymocyte selection-associated high mobility group box) | 6 | -0.817 | inactive |
| Ifi30 (interferon gamma inducible protein 30) | 1 | -1.41 | inactive |
| Ifi30 (interferon gamma inducible protein 30) | 2 | -3.76 | active |
| Ifi30 (interferon gamma inducible protein 30) | 3 | -4.77 | active |
| Ifi30 (interferon gamma inducible protein 30) | 4 | 2.41 | active |
| Ifi30 (interferon gamma inducible protein 30) | 5 | 0.213 | inactive |
| Ifi30 (interferon gamma inducible protein 30) | 6 | -1.09 | inactive |
| Sqor (sulfide quinone oxidoreductase) | 1 | -3.19 | active |
| Sqor (sulfide quinone oxidoreductase) | 2 | -3.85 | active |
| Sqor (sulfide quinone oxidoreductase) | 3 | -5.82 | active |
| Sqor (sulfide quinone oxidoreductase) | 4 | 1.45 | inactive |
| Sqor (sulfide quinone oxidoreductase) | 5 | 0.954 | inactive |
| Sqor (sulfide quinone oxidoreductase) | 6 | -2.22 | active |
| Spryd7 (SPRY domain containing 7) | 1 | 1.34 | inactive |
| Spryd7 (SPRY domain containing 7) | 2 | -4.46 | active |
| Spryd7 (SPRY domain containing 7) | 3 | -5.07 | active |
| Spryd7 (SPRY domain containing 7) | 4 | 1.81 | inactive |
| Spryd7 (SPRY domain containing 7) | 5 | 1.57 | inactive |
| Spryd7 (SPRY domain containing 7) | 6 | 1.43 | inactive |

Targets above whose target name starts with A or a (12):
| gene knocked down | reagent | TNF reporter z-score, mean | outcome |
| --- | --- | --- | --- |
| Akr1b7 (aldo-keto reductase family 1, member B7) | 1 | 1.54 | inactive |
| Akr1b7 (aldo-keto reductase family 1, member B7) | 2 | -1.61 | inactive |
| Akr1b7 (aldo-keto reductase family 1, member B7) | 3 | -3.15 | active |
| Akr1b7 (aldo-keto reductase family 1, member B7) | 4 | -0.554 | inactive |
| Akr1b7 (aldo-keto reductase family 1, member B7) | 5 | -1.07 | inactive |
| Akr1b7 (aldo-keto reductase family 1, member B7) | 6 | -2.25 | active |
| Adcy9 (adenylate cyclase 9) | 1 | 2.24 | active |
| Adcy9 (adenylate cyclase 9) | 2 | 0.756 | inactive |
| Adcy9 (adenylate cyclase 9) | 3 | -1.74 | inactive |
| Adcy9 (adenylate cyclase 9) | 4 | -0.201 | inactive |
| Adcy9 (adenylate cyclase 9) | 5 | -1.07 | inactive |
| Adcy9 (adenylate cyclase 9) | 6 | -1 | inactive |
